# Source: patent US10865218B2, “Fluoride fluorescence probe” (The Procter & Gamble Company, priority 2017, dated 2020)
# How the values were obtained:
# Assay type in all cases: physicochemical
# [1] = Fluoride ion sensing: fluorescence and absorption spectra of the probes with NaF
# Description: The procedure for fluoride ion sensing is described. Stock solutions of inventive compounds R1-R3 (1 mM) are prepared in DMSO. The test solutions of the inventive compounds R1-R3 (10 μM) in […] DMSO-HEPES solution (3/2, v/v, 10 mM HEPES, pH=7.2) are prepared by placing stock solutions in 10-mL volumetric flask, and diluting with buffer solution. The resulting solutions are shaken well and incubated at room temperature for 50 minutes before recording the spectra.
# Sodium fluoride (NaF) is used as a fluoride source for the fluoride ion sensing test. Stock solution of NaF (1 mM) is prepared in deionized water. The test solutions of the inventive compounds R1-R3 (10 μM) with NaF (500 μM) are prepared by placing stock solutions in 10-mL volumetric flask, and diluting with buffer solution. The resulting solutions are shaken well and incubated at room temperature for 50 minutes before recording the spectra.
# UV-visible spectra are recorded on a Shimadzu UV-2550 spectrometer. Steady-state emission experiments at room temperature are measured on an Edinburgh instrument FLS-920 spectrometer with a Xe lamp as an excitation source. Unless otherwise noted, for all measurements, the excitation wavelength is 620 nm and the emission wavelength is collected from 640 to 780 nm.
# The color changed from colorless to blue, which can be visible by naked eyes. […]
# [2] = Concentration dependence of fluorescence and detection limit, MFP
# [3] = Selectivity to F− from different sources
# [4] = Concentration dependence of fluorescence and detection limit, NaF
# [5] = Anion selectivity: fluorescence and absorption spectra with various anions; settings: R3 10 μM
# [6] = R3 10 μM, 50 min, DMSO-HEPES pH 7.2
structure (smiles),measurement,setting,value
"CN(C)c1ccc2c(c1)Sc1cc(N(C)C)ccc1N2C(=O)OCc1ccc(O[Si](C)(C)C(C)(C)C)cc1 [Compound R3, 4-((tert-butyldimethylsilyl)oxy)benzyl 3,7-bis(dimethylamino)-10H-phenothiazine-10-carboxylate]",fluorescent intensity change at 690 nm with addition of F^−,"[1]; R3 10 μM, different NaF concentrations and times, DMSO-HEPES pH 7.2",dependent on both the reaction time and concentration of NaF
same,"fluorescent intensity (at 690 nm) and absorbance (at 667 nm) change, compared among probes",[1]; after reaction with 500 μM NaF for 50 mM (so in the source),much larger than that of R1 and R2
same,linear range of fluorescence intensity at 690 nm versus MFP concentration,[2]; [6],0 to 1000 µM
same,detection limit for MFP,[2]; calculated,1.23 µM
same,fluorescence intensity change for MFP after 120 min compared with NaF after 30 min,[3]; 690 nm,still smaller than that for NaF after incubated for 30 min
same,"difference in fluorescent performance between inorganic fluoride sources NaF, KF and CsF","[3]; R3 10 μM, 500 μM fluoride, 50 min",no significant differences
same,fluorescence intensity change induced by MFP relative to that induced from NaF,"[3]; both incubated for 30 min, 690 nm",9.7%
same,linear range of fluorescence intensity at 690 nm versus NaF concentration,[4]; [6],0 to 50 µM
same,detection limit for NaF,[4]; calculated,0.11 µM
same,fluorescence and absorbance response to F^−,"[5]; 500 μM F^−, only F^− among the analytes",drastic increase of both fluorescence intensity and absorbance
same,fluorescence and absorbance response to all other anions,"[5]; 500 μM analyte (CO3^2−, PO4^3−, H2PO4^−, NO3^−, NO2^−, SO4^2−, SO3^2−, S2O3^2−, CH3COO^−, Cl^−, Br^−, I^−, N3^−, SCN^−, C2O4^2−, BSA)",almost no change on fluorescence or absorbance
